In US20140255304:
Weaker means in comparison with the reference protein, sequence or condition of that experiment.

Protein sequences, listed by entry. Tags and fused reporters are not part of them.
UniProt Q13148, whole entry: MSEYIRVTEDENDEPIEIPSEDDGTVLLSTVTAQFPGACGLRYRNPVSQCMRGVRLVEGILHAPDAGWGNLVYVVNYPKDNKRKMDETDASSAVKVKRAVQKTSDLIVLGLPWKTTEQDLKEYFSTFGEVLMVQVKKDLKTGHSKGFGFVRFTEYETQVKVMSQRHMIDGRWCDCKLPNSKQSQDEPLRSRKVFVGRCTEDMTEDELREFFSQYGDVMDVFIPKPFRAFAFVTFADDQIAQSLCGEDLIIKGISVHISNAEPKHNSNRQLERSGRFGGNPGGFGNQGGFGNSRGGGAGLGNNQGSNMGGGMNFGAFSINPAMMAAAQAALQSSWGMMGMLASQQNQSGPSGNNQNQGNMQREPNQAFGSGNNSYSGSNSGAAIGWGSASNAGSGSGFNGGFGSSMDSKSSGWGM

Target: TDP-43 full length (residues 1-414) (Homo sapiens) (UniProt Q13148)
Test: FP
Settings: at least 30-fold lower affinity than (UG)6; 40 mM HEPES, 0.5 M KCl, 0.4 M arginine, pH 7.4, 25 C; purified recombinant protein; label: 5' TYE fluorophore

Sequence: UUUUUUUUUUUU [(UU)6 control RNA]
- binding result: binds more weakly
